These are yes or no findings as the source states them, for the method shown. Binding seen in cells or lysates may run through a third protein. Some entries that bind do so weakly or less than the wild type.
Molecular target: autophagy adaptor protein p62/SQSTM1 (sequestosome-1) (human (endogenous in HeLa)) (UniProt Q13501)
Assay: co-IP

Protein sequences, listed by entry. Tags and fused reporters are not part of them.
UniProt P03107: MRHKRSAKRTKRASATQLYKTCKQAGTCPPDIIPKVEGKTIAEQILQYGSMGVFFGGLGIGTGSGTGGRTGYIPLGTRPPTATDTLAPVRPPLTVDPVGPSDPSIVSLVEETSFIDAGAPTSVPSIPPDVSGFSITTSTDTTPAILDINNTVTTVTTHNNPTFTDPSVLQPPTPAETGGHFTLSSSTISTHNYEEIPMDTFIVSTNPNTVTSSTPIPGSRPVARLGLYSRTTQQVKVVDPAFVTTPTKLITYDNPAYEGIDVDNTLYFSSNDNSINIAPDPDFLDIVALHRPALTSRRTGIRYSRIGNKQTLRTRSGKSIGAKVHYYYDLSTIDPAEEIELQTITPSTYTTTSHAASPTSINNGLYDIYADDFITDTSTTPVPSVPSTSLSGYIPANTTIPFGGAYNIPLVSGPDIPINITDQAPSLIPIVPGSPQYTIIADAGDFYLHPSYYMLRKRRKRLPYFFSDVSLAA
UniProt P03101: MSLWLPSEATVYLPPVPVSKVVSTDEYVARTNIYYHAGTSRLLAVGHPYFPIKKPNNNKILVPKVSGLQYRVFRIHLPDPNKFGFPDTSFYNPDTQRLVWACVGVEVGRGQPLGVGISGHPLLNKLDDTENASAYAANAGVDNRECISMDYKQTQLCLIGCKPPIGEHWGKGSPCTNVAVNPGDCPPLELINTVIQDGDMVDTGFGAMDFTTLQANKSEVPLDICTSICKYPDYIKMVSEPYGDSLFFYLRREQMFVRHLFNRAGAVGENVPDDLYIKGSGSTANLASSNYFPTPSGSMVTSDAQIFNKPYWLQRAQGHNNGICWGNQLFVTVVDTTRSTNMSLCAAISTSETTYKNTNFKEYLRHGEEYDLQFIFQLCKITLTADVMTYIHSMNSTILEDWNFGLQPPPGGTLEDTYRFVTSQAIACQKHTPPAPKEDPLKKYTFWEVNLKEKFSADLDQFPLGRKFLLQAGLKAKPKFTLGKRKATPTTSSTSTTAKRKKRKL

Row | Substance | binding
1 | HPV16 minor capsid protein L2 (of incoming HPV16 pseudoviruses) (from UniProt P03107 1-473) | binds
2 | HPV16 minor capsid protein L2 (overexpressed in HeLa cells) (from UniProt P03107 1-473) | binds
3 | HPV16 major capsid protein L1 (of incoming HPV16 pseudoviruses) (from UniProt P03101 1-505) | binds

Source: paper PMC9315800
